Measurements: PubChem BioAssay AID2685 (National Center for Advancing Translational Sciences (NCATS), 2010)
Some of the results follow. Shown are side measurements of this screen, not its main read-out; they come without a call. Compounds called inactive in the main read-out are mostly missing here. Potencies come from curve fits of mixed quality, noted in brackets.

Test: qHTS Assay for Lipid Storage Modulators in Drosophila S3 Cells;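 for cell number change: cells counted by Cell Tracker Red CMTPX staining in the red channel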
Settings: BODIPY lipid droplet fluorescence, 18-24 h; for cell number change: measured here: cell count max response, cells fed with added oleic acid
Outline: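 Laser-scanning cytometry quantifies lipid droplet accumulation (500–530 nm total intensity; droplet/cell object ratio) in oleic acid-fed (400 uM added) Drosophila S3 cells treated with a concentration series. 20 uM Triacsin C defined 100% inhibition.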

[1] = measured here: cell number channel AC50, cells fed with added oleic acid
[2] = measured here: lipid fluorescence (Fed channel) AC50, cells fed with added oleic acid

Compound: NS(=O)(=O)c1ccc(CCNC(=O)c2ccc(Cl)cc2[N+](=O)[O-])cc1
- cell number change: 18.5%

Compound: Cc1cccc(C(=O)OCC(=O)Nc2c(C)nn(-c3ccccc3)c2C)c1O
- cell number change: -50%
- AC50 [1]: 29.1 µM [falling, single point]

Compound: Cc1ccc(C2=NN3C(C(=O)c4ccccc4)Oc4ccccc4C3C2)cc1 (configuration not stated)
- cell number change: -5.07%

Compound: O=C1C2CC=CCC2C(=O)N1c1ccc(NCCc2cccc(F)c2)c([N+](=O)[O-])c1 (configuration not stated)
- cell number change: 7.43%
- AC50 [2]: 0.651 µM [rising, full curve, poor fit]

Compound: COC(=O)C(NC(=O)CCc1c(C)nc2ncnn2c1C)C(C)C (configuration not stated)
- cell number change: 17.6%
- AC50 [2]: 29.1 µM [falling, single point]

Compound: COc1ccc(/C=N/NC(=O)c2ccccc2OCc2ccccc2)c(OC)c1
- cell number change: 13.6%

Compound: O=C(Nc1ccc(OC(F)F)c(Cl)c1)Nc1ccc2c(c1)OCO2
- cell number change: 10.6%
- AC50 [1]: 0.058 µM [rising, full curve, poor fit]

Compound: CCc1cc(C(=O)N2CCN(c3ccccn3)CC2)sc1C
- cell number change: -3.19%
- AC50 [2]: 32.6 µM [falling, single point]

Compound: CCCCN1C(=O)/C(=C/C=C2/CC(C)(C)CN2C)SC1=S
- AC50 [2]: 5.8 µM [falling, full curve, poor fit]

Compound: COCCNC(=O)Cc1c(C)c2c(cc(C)c3c(C(C)(C)C)coc32)oc1=O
- cell number change: -54.8%
- AC50 [1]: 11.6 µM [falling, partial curve]
- AC50 [2]: 9.2 µM [falling, partial curve]

Compound: O=C(Nc1ccccc1Cl)c1ccn[nH]1
- cell number change: -7.9%

Compound: COC(=O)c1sc(N)c(C(=O)OC)c1COC(=O)CNS(=O)(=O)c1ccc(C)cc1
- cell number change: 20.6%
- AC50 [2]: 4.61 µM [rising, partial curve]

Compound: O=c1c2ccccc2ncn1Cc1ccco1
- cell number change: -16.1%
- AC50 [2]: 0.0058 µM [falling, full curve, poor fit]

Compound: CC(C)c1ccc(NC(=O)C2CC(=O)N(C(C)C)C2)cc1 (configuration not stated)
- cell number change: -14.1%
- AC50 [1]: 0.231 µM [falling, full curve, poor fit]
- AC50 [2]: 6.51 µM [falling, single point]

Compound: COC(=O)c1c(NC(=O)Cc2cccs2)sc2c1CCC(C)C2 (configuration not stated)
- AC50 [1]: 0.0731 µM [rising, full curve]
- AC50 [2]: 0.206 µM [rising, full curve]

Compound: O=C(CCN1CCc2ccccc2C1)Nc1ccc2c(c1)OCO2
- cell number change: 138%
- AC50 [1]: 13 µM [rising, partial curve]
- AC50 [2]: 29.1 µM [rising, partial curve]

Compound: CCCCN(C(=O)c1ccc(-c2ccc(Cl)cc2)o1)c1c(N)n(CCCC)c(=O)[nH]c1=O
- cell number change: -32.8%
- AC50 [1]: 25.9 µM [falling, partial curve, poor fit]

Compound: Cc1ccccc1NC(=O)Cc1nc(COC(=O)c2nc(Cl)ccc2Cl)cs1
- cell number change: 12.3%
- AC50 [2]: 6.51 µM [rising, full curve, poor fit]

Compound: CC(C)Oc1ccc(Cc2n[nH]c(=S)n2Cc2ccccc2)cc1Cl
- cell number change: 5.08%

Compound: CCN(CC)C(=S)SCC(=O)Nc1ccc(S(N)(=O)=O)cc1
- cell number change: 25.9%

Compound: Cc1ccc(C(=O)N2CCCC(C(=O)c3ccc(Oc4ccccc4)cc3)C2)cn1 (configuration not stated)
- cell number change: -42.6%
- AC50 [1]: 20.6 µM [falling, partial curve, poor fit]
- AC50 [2]: 14.6 µM [falling, partial curve]

Compound: CC(=O)c1sc(NC(=O)c2cc(-c3ccccc3)nn2-c2ccccc2)nc1C
- cell number change: 32.5%
- AC50 [1]: 2.31 µM [rising, full curve]
- AC50 [2]: 10.3 µM [rising, partial curve, poor fit]

Compound: CC1CCCCC1NC(=O)COC(=O)CN1C(=O)c2ccccc2C1=O (configuration not stated)
- cell number change: 25.6%

Compound: COc1ccc2[nH]cc(C(=O)CCl)c2c1
- cell number change: -37.9%
- AC50 [1]: 18.4 µM [falling, single point]
- AC50 [2]: 20.6 µM [falling, single point]

Compound: CC1CCC(NS(=O)(=O)c2ccc(Cl)nc2)CC1 (configuration not stated)
- cell number change: -25%
- AC50 [2]: 0.00517 µM [falling, full curve, poor fit]

Compound: COc1ccc(OC)c(C2CC(=O)N3CN(c4ccc(C)c(Cl)c4)CSC3=C2C#N)c1 (configuration not stated)
- cell number change: -5.77%
- AC50 [2]: 0.103 µM [rising, full curve, poor fit]

Compound: OC1CCCN(C(=S)NCc2ccccc2)C1 (configuration not stated)
- cell number change: 11.4%

Compound: CCc1ccc2oc(C(=O)Nc3nonc3CC)c(C)c2c1
- cell number change: 26.6%

Compound: Cn1cnc([N+](=O)[O-])c1Oc1ccccc1
- cell number change: -22.2%
- AC50 [2]: 29.1 µM [falling, single point]

Compound: Cc1c(C)c2ccc(OCC(=O)NC(Cc3ccc(Cl)cc3)C(=O)O)cc2oc1=O (configuration not stated)
- cell number change: 2.06%

Compound: O=C(Nc1ccccc1)N1CCN(Cc2ccc3c(c2)OCO3)CC1
- cell number change: -27.6%
- AC50 [1]: 3.66 µM [falling, full curve, poor fit]

Compound: CCNc1nc(SCC(=O)OC)nc(N2CCOCC2)n1
- cell number change: 0.873%

Compound: C=CCn1c(COc2ccccc2F)nnc1SCC(=O)NC(=O)NCc1ccco1
- cell number change: -22.2%

Compound: CN(Cc1ccccc1)S(=O)(=O)c1cc2c3c(c1)CCN3C(=O)CC2
- cell number change: 70.4%
- AC50 [1]: 20.6 µM [rising, partial curve]

Compound: Cc1ccc(N(CCCCN2C(=O)c3ccccc3C2=O)C(=O)c2cccs2)cc1
- cell number change: -49.3%
- AC50 [1]: 29.1 µM [falling, single point]
- AC50 [2]: 29.1 µM [falling, single point]

Compound: CC(=O)Nc1ccc(S(=O)(=O)NCCC(=O)NCC2COc3ccccc3O2)cc1 (configuration not stated)
- cell number change: 18.6%
- AC50 [1]: 0.411 µM [rising, full curve, poor fit]

Compound: COc1ccccc1N1CCN(S(=O)(=O)c2ccc(NC(C)=O)cc2)CC1
- cell number change: -4.67%
- AC50 [2]: 6.51 µM [rising, single point]

Compound: COc1ccc(-c2ccc(SCC(=O)NC3CCCCC3)nn2)cc1
- cell number change: 9.83%
- AC50 [2]: 6.51 µM [rising, partial curve]

Compound: C[C@H]1COc2c(C3(N)CC3)c(F)cc3c(=O)c(C(=O)O)cn1c23
- cell number change: -37.8%
- AC50 [1]: 4.11 µM [falling, full curve]
- AC50 [2]: 0.146 µM [falling, full curve]

Compound: COC(=O)c1ccccc1NC(=O)CSc1nnnn1CC(=O)O
- cell number change: -2.63%
- AC50 [1]: 0.231 µM [rising, partial curve]

Compound: CCOC(=O)c1nn(-c2ccc(Cl)cc2)c2nc(Nc3ccccc3)cc(=O)n12
- AC50 [2]: 0.58 µM [rising, single point]

Compound: CC(=O)N1CCCN(Cc2cn(-c3cccc(C)c3)nc2-c2cccc(F)c2)CC1
- cell number change: 19.2%

Compound: COc1cc(/C=N/NC(=O)CN(Cc2ccccc2)S(=O)(=O)c2ccc3c(c2)OCCO3)ccc1O
- cell number change: -2.38%
- AC50 [1]: 3.26 µM [rising, single point]
- AC50 [2]: 1.16 µM [rising, partial curve]

Compound: O=C(Cc1csc(NC(=O)Nc2cccc(Cl)c2)n1)NCc1cccnc1
- AC50 [1]: 0.13 µM [falling, partial curve, poor fit]

Compound: COc1ccc(CC(C(=O)Nc2cccc(F)c2)c2nn[nH]n2)c(OC)c1 (configuration not stated)
- cell number change: -35.2%
- AC50 [1]: 20.6 µM [falling, partial curve, poor fit]
- AC50 [2]: 29.1 µM [falling, single point]

Compound: CCCCNC(=O)Cn1c(=O)oc2cc(S(=O)(=O)N3CC(C)CC(C)C3)ccc21 (configuration not stated)
- cell number change: 8.26%

Compound: O=C(NC(C(=O)N/N=C/c1cccc2ccccc12)c1n[nH]c(=O)c2ccccc12)c1ccccc1 (configuration not stated)
- cell number change: -33.5%
- AC50 [2]: 32.6 µM [falling, partial curve, poor fit]

Compound: CCN1C(=O)C(CC(=O)Nc2ccc(F)cc2)N(Cc2ccco2)C1=S (configuration not stated)
- cell number change: -49.5%

Compound: C=CCOc1ccc(C(=O)Nc2ccccc2C(=O)NCc2cccnc2)cc1
- AC50 [2]: 2.24 µM [falling, partial curve]

Compound: Cc1ccc(S(=O)(=O)N2CCOC2CNC(=O)C(=O)NCCCc2ccccc2)cc1 (configuration not stated)
- cell number change: -19.6%
- AC50 [2]: 16.4 µM [falling, single point]

Compound: Cn1c(=O)c2c(nc(NCc3ccc4c(c3)OCO4)n2Cc2ccccc2)n(C)c1=O
- cell number change: -93.9%

Compound: COc1cccc(NC(=O)CN(C)C(=O)c2cc(S(=O)(=O)NCc3ccccc3)ccc2C)c1
- cell number change: -22.1%
- AC50 [2]: 6.51 µM [rising, single point]

Compound: COC(=O)[C@H](CCSC)NC(=O)NCc1ccccn1
- cell number change: -31.4%
- AC50 [1]: 0.146 µM [falling, full curve, poor fit]

Compound: CC(=O)c1ccc(NC(=S)N2CCN(S(=O)(=O)c3ccc(F)cc3)CC2)cc1
- cell number change: 3.45%

Compound: COc1ccccc1-c1nc(S(=O)(=O)c2ccccc2)c(N2CCCCC2)o1
- AC50 [2]: 2.51 µM [falling, partial curve]

Compound: CCCCCOC(=O)Cn1c(SCC(=O)Nc2ccccc2)nc2c1c(=O)[nH]c(=O)n2C
- cell number change: 53.3%
- AC50 [1]: 11.6 µM [rising, partial curve]
- AC50 [2]: 29.1 µM [rising, single point]

Compound: Cc1cc(C)nc(-n2ncc3c2CC(c2ccc(C(C)C)cc2)CC3=O)n1 (configuration not stated)
- cell number change: 8.97%
- AC50 [2]: 2.59 µM [rising, single point]

Compound: CO/N=C/c1ccc(N2CCN(C(=O)c3ccc(F)cc3)CC2)c([N+](=O)[O-])c1
- cell number change: -114%
- AC50 [1]: 29.1 µM [falling, single point]
- AC50 [2]: 29.1 µM [falling, single point]

Compound: Cc1cccc2sc(NC(=O)C3CCCN(S(=O)(=O)c4cccc5nonc45)C3)nc12 (configuration not stated)
- cell number change: -29.8%
- AC50 [2]: 13 µM [falling, partial curve]

Compound: COC(=O)CN1C(=O)COc2ccc(S(=O)(=O)NCc3ccccc3)cc21
- cell number change: 7.74%

Compound: Cn1c(NCc2ccc(Cl)cc2)nc2ccccc21
- AC50 [2]: 0.103 µM [rising, partial curve, poor fit]

Compound: CCOc1ccccc1NS(=O)(=O)c1ccc(-c2cnc(C3CC3)o2)cc1
- cell number change: -36.7%
- AC50 [1]: 20.6 µM [falling, single point]
